Some of the results follow.
Legend:
Test in all cases: log2 fold change, soluble protein after heating vs DMSO (PISA); higher = thermal stabilisation; K562 lysate, 10 uM; active = over 0.2 and 3.5 SD of the protein, either way, in both replicates (recomputed)
alvocidib = compound: CN1CC[C@H](c2c(O)cc(O)c3c(=O)cc(-c4ccccc4Cl)oc23)[C@H](O)C1 [alvocidib]
Method in brief: (§1)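 Soluble protein was defined as the supernatant remaining after 21,000xg for 90 min, following pooling of heated aliquots and adjustment to 0.5% NP-40 at 4°C. Before that, crude K562 extract at 1 mg/mL protein in PBS pH 7.4 with 1 mM MgCl2 was treated with 10 μM compound for 30 min and heated for 3 min across 48°C-58°C. Quantification used TMTpro 16plex LC-MS/MS with channel sums equalised, and values are log-two fold changes in thermal stability relative to solvent controls from duplicates.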

Amino acid sequences for entries named in this document (tags omitted). A change or cut given only in a name is not applied to a line headed by its entry.
UniProt Q5VUM1: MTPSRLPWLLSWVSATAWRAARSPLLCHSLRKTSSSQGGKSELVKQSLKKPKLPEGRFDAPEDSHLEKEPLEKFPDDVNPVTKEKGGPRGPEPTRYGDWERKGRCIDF
UniProt Q5K651: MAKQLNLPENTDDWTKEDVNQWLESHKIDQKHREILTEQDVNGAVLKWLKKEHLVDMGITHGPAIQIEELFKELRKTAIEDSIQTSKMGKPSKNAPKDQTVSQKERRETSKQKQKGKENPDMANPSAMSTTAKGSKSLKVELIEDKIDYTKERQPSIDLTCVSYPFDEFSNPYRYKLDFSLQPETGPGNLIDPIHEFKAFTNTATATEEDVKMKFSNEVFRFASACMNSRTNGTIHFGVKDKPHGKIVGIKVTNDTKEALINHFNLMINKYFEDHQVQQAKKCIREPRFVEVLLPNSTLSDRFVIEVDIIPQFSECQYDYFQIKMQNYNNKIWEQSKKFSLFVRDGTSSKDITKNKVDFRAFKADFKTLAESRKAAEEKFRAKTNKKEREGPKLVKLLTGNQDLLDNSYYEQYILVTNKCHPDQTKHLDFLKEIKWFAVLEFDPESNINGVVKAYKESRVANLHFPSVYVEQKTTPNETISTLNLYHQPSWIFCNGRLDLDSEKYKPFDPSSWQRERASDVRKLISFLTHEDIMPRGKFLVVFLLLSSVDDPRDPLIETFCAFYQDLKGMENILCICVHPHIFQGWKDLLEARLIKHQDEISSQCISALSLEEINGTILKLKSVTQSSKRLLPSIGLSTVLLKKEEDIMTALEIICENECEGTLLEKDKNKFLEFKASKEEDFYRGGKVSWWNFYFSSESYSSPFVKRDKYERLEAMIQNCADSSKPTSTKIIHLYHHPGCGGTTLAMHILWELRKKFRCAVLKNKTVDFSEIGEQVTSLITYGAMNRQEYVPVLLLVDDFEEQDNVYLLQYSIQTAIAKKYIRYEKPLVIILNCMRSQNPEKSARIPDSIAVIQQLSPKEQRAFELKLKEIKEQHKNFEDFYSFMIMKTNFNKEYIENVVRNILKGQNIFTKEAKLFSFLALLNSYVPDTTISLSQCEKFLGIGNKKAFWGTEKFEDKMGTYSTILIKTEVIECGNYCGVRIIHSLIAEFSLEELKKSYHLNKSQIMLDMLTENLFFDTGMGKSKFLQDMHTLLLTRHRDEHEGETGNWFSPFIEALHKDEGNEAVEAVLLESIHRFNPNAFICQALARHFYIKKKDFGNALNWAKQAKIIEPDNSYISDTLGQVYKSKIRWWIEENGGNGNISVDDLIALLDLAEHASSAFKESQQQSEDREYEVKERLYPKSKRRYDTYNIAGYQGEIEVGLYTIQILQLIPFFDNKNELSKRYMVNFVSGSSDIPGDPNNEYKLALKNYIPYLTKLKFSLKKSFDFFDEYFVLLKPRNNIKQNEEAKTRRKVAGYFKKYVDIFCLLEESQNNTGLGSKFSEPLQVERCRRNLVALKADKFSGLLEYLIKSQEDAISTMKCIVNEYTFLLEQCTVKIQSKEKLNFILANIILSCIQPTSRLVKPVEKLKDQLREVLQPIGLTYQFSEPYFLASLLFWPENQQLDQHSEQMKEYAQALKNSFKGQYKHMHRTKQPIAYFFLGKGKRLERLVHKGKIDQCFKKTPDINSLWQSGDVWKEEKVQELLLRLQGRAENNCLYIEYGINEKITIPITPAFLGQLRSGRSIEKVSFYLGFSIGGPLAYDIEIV
UniProt P60468, whole entry, looked up: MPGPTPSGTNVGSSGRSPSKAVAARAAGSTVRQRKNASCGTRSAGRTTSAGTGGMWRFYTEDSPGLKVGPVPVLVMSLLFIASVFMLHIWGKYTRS
UniProt O94885: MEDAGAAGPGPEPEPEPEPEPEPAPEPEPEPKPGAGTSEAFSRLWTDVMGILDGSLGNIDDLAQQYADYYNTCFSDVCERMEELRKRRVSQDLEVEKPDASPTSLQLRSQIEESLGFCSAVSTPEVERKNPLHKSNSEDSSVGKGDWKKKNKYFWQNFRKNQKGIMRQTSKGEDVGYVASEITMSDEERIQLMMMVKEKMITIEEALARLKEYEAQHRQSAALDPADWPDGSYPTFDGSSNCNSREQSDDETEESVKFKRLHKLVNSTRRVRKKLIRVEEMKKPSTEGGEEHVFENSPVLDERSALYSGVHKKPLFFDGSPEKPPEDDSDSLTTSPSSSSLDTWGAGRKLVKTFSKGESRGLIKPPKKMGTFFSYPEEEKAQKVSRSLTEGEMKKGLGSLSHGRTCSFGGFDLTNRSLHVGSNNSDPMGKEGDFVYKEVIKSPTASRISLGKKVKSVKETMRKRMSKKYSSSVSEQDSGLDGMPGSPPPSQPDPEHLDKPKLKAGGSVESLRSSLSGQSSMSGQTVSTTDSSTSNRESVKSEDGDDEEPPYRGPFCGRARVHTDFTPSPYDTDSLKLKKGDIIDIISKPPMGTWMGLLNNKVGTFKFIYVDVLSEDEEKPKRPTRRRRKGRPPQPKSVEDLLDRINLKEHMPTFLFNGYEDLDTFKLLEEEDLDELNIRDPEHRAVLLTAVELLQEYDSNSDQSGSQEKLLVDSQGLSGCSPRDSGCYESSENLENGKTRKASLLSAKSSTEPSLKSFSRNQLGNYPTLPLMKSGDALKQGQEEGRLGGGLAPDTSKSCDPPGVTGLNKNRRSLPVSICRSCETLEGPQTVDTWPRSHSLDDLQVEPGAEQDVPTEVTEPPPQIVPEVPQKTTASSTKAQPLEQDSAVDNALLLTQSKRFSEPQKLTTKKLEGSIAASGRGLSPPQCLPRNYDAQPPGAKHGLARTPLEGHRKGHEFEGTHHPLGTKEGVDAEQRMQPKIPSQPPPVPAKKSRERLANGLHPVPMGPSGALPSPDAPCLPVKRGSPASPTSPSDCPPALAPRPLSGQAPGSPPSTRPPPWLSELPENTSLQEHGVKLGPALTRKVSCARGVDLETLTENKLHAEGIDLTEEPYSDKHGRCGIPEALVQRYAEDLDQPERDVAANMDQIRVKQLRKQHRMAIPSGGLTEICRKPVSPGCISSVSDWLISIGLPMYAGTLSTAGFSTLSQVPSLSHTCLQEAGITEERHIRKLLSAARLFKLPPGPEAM
UniProt O95968: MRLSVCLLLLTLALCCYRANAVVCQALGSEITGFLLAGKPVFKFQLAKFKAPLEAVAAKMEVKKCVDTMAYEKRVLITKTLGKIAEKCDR
UniProt Q9NZV5, whole entry, looked up: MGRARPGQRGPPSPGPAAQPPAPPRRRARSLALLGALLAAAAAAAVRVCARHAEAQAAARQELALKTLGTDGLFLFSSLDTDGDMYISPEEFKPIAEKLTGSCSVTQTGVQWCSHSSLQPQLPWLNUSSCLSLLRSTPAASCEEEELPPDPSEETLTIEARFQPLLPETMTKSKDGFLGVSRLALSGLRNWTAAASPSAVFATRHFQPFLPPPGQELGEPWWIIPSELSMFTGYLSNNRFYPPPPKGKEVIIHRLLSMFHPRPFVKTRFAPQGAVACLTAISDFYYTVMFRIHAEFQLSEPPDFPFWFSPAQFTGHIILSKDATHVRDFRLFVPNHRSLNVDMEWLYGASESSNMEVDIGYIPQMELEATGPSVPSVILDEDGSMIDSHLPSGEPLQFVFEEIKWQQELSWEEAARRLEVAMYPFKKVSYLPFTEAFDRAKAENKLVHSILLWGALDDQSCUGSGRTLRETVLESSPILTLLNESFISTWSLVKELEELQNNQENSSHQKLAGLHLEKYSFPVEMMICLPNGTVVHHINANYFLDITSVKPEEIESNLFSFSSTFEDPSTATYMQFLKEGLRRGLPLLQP
UniProt Q99470: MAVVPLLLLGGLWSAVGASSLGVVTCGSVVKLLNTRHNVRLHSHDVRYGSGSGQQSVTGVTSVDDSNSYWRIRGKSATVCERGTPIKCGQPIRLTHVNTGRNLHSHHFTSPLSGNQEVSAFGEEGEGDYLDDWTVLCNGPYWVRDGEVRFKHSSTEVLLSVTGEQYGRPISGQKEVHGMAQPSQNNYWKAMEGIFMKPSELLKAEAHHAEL
UniProt A6NKF1: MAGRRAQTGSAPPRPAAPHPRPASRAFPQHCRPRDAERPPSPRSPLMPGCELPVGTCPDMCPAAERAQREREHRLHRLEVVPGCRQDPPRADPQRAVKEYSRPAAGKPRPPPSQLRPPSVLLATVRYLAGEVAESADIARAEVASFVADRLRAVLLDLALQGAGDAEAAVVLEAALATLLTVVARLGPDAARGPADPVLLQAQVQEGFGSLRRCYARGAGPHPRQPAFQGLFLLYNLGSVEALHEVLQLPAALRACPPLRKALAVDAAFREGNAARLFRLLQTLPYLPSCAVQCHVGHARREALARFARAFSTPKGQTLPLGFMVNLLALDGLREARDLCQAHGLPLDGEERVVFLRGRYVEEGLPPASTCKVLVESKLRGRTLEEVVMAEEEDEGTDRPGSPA
UniProt P60896: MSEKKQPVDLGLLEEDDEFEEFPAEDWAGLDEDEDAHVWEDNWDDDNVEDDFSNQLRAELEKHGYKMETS
UniProt Q9Y2G9: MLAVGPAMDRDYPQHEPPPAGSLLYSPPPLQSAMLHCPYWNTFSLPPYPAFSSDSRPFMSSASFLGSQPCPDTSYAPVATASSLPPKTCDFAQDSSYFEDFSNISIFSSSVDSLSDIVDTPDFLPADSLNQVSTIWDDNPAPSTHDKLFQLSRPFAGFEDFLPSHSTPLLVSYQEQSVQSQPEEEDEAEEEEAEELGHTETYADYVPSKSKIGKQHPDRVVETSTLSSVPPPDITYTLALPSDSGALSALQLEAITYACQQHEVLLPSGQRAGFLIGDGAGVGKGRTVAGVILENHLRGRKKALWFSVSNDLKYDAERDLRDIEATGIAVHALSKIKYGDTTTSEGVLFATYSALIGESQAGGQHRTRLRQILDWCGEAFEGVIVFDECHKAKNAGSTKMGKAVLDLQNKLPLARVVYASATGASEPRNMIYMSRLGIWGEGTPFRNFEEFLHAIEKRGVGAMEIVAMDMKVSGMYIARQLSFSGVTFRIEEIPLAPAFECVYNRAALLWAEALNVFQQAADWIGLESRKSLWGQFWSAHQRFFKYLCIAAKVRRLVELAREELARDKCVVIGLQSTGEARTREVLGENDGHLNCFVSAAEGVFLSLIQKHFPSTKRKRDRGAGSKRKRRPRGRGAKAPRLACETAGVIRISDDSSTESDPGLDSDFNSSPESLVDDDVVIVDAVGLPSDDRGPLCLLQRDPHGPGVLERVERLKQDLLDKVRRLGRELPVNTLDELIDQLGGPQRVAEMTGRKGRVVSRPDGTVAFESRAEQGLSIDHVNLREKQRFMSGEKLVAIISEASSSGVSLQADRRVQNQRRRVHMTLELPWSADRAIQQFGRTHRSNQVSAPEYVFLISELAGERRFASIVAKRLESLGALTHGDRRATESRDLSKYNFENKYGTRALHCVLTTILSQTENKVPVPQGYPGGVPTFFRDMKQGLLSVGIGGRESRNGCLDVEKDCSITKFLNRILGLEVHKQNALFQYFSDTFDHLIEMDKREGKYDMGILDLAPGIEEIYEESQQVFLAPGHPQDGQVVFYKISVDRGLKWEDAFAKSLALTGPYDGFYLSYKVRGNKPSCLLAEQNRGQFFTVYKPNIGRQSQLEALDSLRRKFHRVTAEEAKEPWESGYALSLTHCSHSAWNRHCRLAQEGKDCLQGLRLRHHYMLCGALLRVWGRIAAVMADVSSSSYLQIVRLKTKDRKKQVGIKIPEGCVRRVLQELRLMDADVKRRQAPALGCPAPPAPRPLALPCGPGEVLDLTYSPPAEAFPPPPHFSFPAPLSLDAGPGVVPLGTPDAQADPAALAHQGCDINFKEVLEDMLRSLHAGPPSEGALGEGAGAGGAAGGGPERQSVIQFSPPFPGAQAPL
UniProt Q9HAJ7: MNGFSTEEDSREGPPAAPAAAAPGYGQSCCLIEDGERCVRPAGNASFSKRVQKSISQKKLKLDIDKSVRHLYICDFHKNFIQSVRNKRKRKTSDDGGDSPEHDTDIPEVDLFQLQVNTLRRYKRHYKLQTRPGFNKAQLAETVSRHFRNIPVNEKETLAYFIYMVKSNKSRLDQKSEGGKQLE
UniProt Q9NX18: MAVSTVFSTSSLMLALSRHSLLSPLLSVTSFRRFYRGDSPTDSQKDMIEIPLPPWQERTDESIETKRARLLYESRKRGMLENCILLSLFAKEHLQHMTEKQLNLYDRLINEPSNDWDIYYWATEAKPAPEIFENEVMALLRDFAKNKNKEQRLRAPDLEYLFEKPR
UniProt Q14108: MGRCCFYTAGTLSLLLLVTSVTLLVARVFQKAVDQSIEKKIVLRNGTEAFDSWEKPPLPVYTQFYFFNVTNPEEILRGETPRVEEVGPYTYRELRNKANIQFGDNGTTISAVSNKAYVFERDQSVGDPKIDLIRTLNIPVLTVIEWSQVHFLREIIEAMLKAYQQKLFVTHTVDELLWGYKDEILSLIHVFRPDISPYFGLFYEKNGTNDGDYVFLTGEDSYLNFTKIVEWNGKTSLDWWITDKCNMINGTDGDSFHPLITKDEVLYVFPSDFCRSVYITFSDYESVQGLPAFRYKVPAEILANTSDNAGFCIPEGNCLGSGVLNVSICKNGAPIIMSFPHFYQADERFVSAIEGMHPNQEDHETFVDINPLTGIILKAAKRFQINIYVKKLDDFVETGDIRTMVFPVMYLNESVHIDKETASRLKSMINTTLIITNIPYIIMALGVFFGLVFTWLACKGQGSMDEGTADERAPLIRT

[1] = compound: CNC(=O)C1=CC=CC=C1NC2=NC(=NC=C2Cl)NC3=C(C=C(C=C3)N4CCOCC4)OC
Method in brief: as §1

defactinib = compound: CNC(=O)c1ccc(Nc2ncc(C(F)(F)F)c(NCc3nccnc3N(C)S(C)(=O)=O)n2)cc1 [defactinib]
Method in brief: as §1

[2] = compound: CNc1nc(-c2ccc3c(N)n[nH]c3c2)cc(N2C[C@@H](C(=O)NC3CCCCC3)CC[C@H]2C)n1
Method in brief: as §1

encorafenib = compound: COC(=O)N[C@@H](C)CNc1nccc(-c2cn(C(C)C)nc2-c2cc(Cl)cc(NS(C)(=O)=O)c2F)n1 [encorafenib]
Method in brief: as §1

[3] = compound: COC(=O)[C@H](CCSC)NC(=O)C1=C(C=C(C=C1)NC[C@H](CS)N)C2=CC=CC=C2
Method in brief: as §1

[4] = compound: COc1cc2nc(-c3cc(F)ccc3O)nc(N[C@@H]3CNC[C@H]3C(C)(C)O)c2cc1OC
Method in brief: as §1

Tubastatin A = compound: CN1CCc2c(c3ccccc3n2Cc2ccc(C(=O)NO)cc2)C1 [Tubastatin A]
Method in brief: as §1

alisertib = compound: COc1cc(Nc2ncc3c(n2)-c2ccc(Cl)cc2C(c2c(F)cccc2OC)=NC3)ccc1C(=O)O [alisertib]
Method in brief: as §1

gefitinib = compound: COc1cc2ncnc(Nc3ccc(F)c(Cl)c3)c2cc1OCCCN1CCOCC1 [gefitinib]
Method in brief: as §1

Measured: log2 fold change

SDHAF4 (UniProt Q5VUM1)
inactive: alvocidib -0.033 | [1] 0.045 | defactinib 0.05 | [2] -0.024 | encorafenib 0 | [3] -0.014 | [4] -0.018

SELENOT (UniProt P62341)
inactive: alvocidib -0.086 | Tubastatin A 0.024 | [1] 0.06 | [2] -0.049 | encorafenib 0.116 | [3] -0.029 | alisertib 0.024 | [4] -0.044 | gefitinib 0.018

SAMD9 (UniProt Q5K651)
inactive: alvocidib 0.029 | Tubastatin A -0.015 | encorafenib 0.07 | [3] -0.046 | alisertib 0.017 | [4] 0.067 | gefitinib -0.03

SEC61B (UniProt P60468)
inactive: alvocidib -0.059 | Tubastatin A 0.025 | [1] -0.033 | defactinib -0.009 | [2] -0.112 | encorafenib 0.031 | [3] -0.063 | alisertib -0.007 | [4] 0.001 | gefitinib 0.076

SENP7 (UniProt Q9BQF6)
inactive: alvocidib 0 | Tubastatin A -0.152 | [2] 0.016 | encorafenib 0.109 | [3] -0.045 | alisertib -0.036 | gefitinib 0.009

SCYL3 isoform 2 (UniProt Q8IZE3)
inactive: alvocidib 0 | Tubastatin A -0.04 | [1] 0.023 | defactinib 0.007 | [2] -0.011 | encorafenib 0.025 | [3] -0.055 | alisertib -0.055 | gefitinib 0.062

SAGE1 (UniProt Q9NXZ1)
inactive: alvocidib 0.081 | Tubastatin A 0.046 | [1] 0.059 | [2] 0.093 | encorafenib -0.005 | [3] -0.048 | alisertib 0.038 | gefitinib -0.082

SASH1 (UniProt O94885)
inactive: alvocidib -0.063 | Tubastatin A 0.046 | [1] 0.034 | [2] -0.033 | encorafenib 0.041 | [3] 0.022 | alisertib 0.011 | [4] -0.023 | gefitinib 0.103

SAMD4A (UniProt Q9UPU9)
inactive: alvocidib 0.039 | Tubastatin A -0.428 | [1] -0.01 | defactinib 0.001 | [2] 0.04 | encorafenib 0.009 | [3] -0.032 | [4] 0.035

SEC31A (UniProt H0YAB3)
inactive: alvocidib -0.031 | Tubastatin A 0.006 | [1] -0.093 | [2] -0.011 | alisertib -0.1 | [4] -0.097 | gefitinib -0.023

SALL2 (UniProt Q9Y467)
inactive: alvocidib 0.09 | Tubastatin A -0.098 | [1] 0.048 | [2] 0.006 | encorafenib 0.276 | [3] -0.159 | alisertib -0.058 | [4] -0.078 | gefitinib -0.194

SBSN (UniProt Q6UWP8)
inactive: alvocidib 0.255 | [1] -0.162

SEPTIN8 (UniProt F8W8I8)
inactive: alvocidib -0.136 | Tubastatin A 0.053 | [1] 0.026 | [2] 0.087 | alisertib 0.041 | [4] 0.019 | gefitinib -0.021

SEC22A (UniProt Q96IW7)
inactive: Tubastatin A -0.044 | alisertib -0.424 | [4] -0.123 | gefitinib 0

SCGB1D1 (UniProt O95968)
inactive: [1] 0.3

SDCCAG8 (UniProt S4R323)
inactive: Tubastatin A -0.163 | [1] 0.14

SELENON (UniProt Q9NZV5)
inactive: [1] -0.034 | [2] -0.293

SEC14L1 isoform 2 (UniProt Q92503)
inactive: defactinib -0.075 | [4] 0.17

SDF2 (UniProt Q99470)
inactive: alisertib 0.133 | [4] 0.211 | gefitinib -0.071

SELENOK (UniProt Q9Y6D0)
inactive: alvocidib -0.169 | defactinib 0.123 | [2] -0.001 | alisertib -0.018 | [4] -0.025 | gefitinib 0.006

SAC3D1 (UniProt A6NKF1)
inactive: alvocidib 0.272 | alisertib -0.102 | gefitinib -0.039

SEC16A isoform 3 (UniProt O15027)
inactive: Tubastatin A -0.008 | [2] 0.023

SENP8 (UniProt Q96LD8)
inactive: Tubastatin A 0.118 | [1] 0.044 | defactinib -0.021 | [2] 0.043 | encorafenib 0.044 | [3] -0.167 | alisertib 0.031 | [4] 0 | gefitinib 0.058

SDHB, A0A087WXX8
inactive: alvocidib -0.076 | defactinib 0.005 | alisertib 0.24 | gefitinib 0.15

SELENOM (UniProt Q8WWX9)
inactive: Tubastatin A 0.138 | [4] -0.258

SEM1 (UniProt P60896)
inactive: [1] 0.04

SDC3 (UniProt O75056)
inactive: Tubastatin A -0.031 | [1] 0.071 | [2] -0.041

SAV1 (UniProt Q9H4B6)
inactive: alisertib -0.067 | gefitinib -0.013

SACS (UniProt Q9NZJ4)
inactive: alisertib -0.133 | gefitinib 0.025

SALL1 (UniProt Q9NSC2)
inactive: alvocidib 0.202 | encorafenib 0.086 | [3] -0.077 | alisertib 0.226 | gefitinib -0.055

SELPLG isoform 2 (UniProt Q14242)
inactive: [4] 0.028

SAP30 (UniProt O75446)
inactive: alvocidib -0.022 | defactinib -0.028 | [2] 0.089 | encorafenib -0.007 | [3] 0.053 | alisertib 0.044 | [4] 0.087 | gefitinib -0.285

SBNO2 (UniProt Q9Y2G9)
inactive: alvocidib 0.047 | defactinib -0.078

SAE1 (UniProt M0R286)
inactive: [1] -0.035 | defactinib -0.143 | [2] 0.03 | encorafenib 0.13 | [3] 0.019 | [4] 0.23

SENP5 (UniProt Q96HI0)
inactive: Tubastatin A 0.001 | [1] -0.036 | defactinib 0.099 | [2] -0.008 | encorafenib -0.017 | [3] 0.217 | alisertib -0.003 | [4] 0.14 | gefitinib 0.059

SAMD8 (UniProt Q96LT4)
inactive: Tubastatin A 0.064 | [1] -0.043

SAP30L (UniProt Q9HAJ7)
inactive: Tubastatin A 0.235 | [1] -0.08

SC5D (UniProt O75845)
inactive: alvocidib -0.036 | encorafenib 0.009 | [3] -0.108 | [4] -0.028

SCGB2A1 (UniProt O75556)
inactive: alvocidib -0.134 | [4] -0.188

SDHAF2 (UniProt Q9NX18)
inactive: Tubastatin A 0.1 | [1] -0.009 | defactinib -0.036 | [2] 0.099 | encorafenib 0.006 | [3] -0.025 | alisertib -0.052 | [4] -0.015 | gefitinib 0.177

SCOC (UniProt Q9UIL1)
inactive: Tubastatin A 0.257 | [1] -0.067 | [2] 0.01

SENP2 (UniProt Q9HC62)
inactive: alisertib -0.075 | gefitinib -0.011

SELENOI (UniProt Q9C0D9)
inactive: Tubastatin A -0.087 | [1] 0.335 | [2] -0.019 | encorafenib 0.024 | [3] 0 | [4] -0.078

SCARB2 isoform 2 (UniProt Q14108)
inactive: alvocidib 0.029 | [2] 0.36 | alisertib -0.002 | [4] 0.076 | gefitinib 0.032

SEC16A isoform 2 (UniProt O15027)
inactive: Tubastatin A 0.023

SCAND1 (UniProt P57086)
inactive: Tubastatin A -0.094

SAFB2 (UniProt K7EQU4)
inactive: [2] 0.159 | alisertib 0.019 | gefitinib -0.168
